# Test results as given in PubChem BioAssay AID504467 (National Center for Advancing Translational Sciences (NCATS), 2011).
# Screen size: about 330,000 compounds; about 7,700 (2.3%) were called active. Inconclusive means that the source gave no clear call. Such entries were picked first, then a sample of the others. Calls follow the shape of the dose curve; as a rule, active = well fitted inhibition curve with a large enough effect; inconclusive = small, poorly fitted or top-dose-only effect, or effect the other way; inactive = flat fitted curve, though single readings scatter. Potencies of inconclusive entries are doubtful fits and often do not repeat.
# Test: qHTS screen for small molecules that inhibit ELG1-dependent DNA repair in human embryonic kidney (HEK293T) cells expressing luciferase-tagged ELG1; also: nearly all actives have a fitted effect of over 55% in size
# Conditions: HEK293T ELG1-luciferase reporter, luminescence, 16 h, DNA damage induced by 5-fluorouridine; activity change, negative = inhibition: at 46.1 µM (top of the series)
# Procedure, shortened: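 Reporter activity after DNA damage by 5-fluorouridine is monitored. Compound-treated cells incubate 16 hr at 37 °C, then ONE-Glo is added for 30 min before luminescence reading.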
# % is scaled to controls: 0 for no effect and ±100 for the full control effect; potency is read from the fitted curve at half-maximal effect.
Compound,Potency,"activity change, negative = inhibition"
O=C(NCC1COc2ccccc2O1)C1CCN(S(=O)(=O)c2ccc(Cl)cc2)CC1 (stereo unspecified),"inconclusive: 29.1 µM [inhibitor, single point]",–
O=C(NC1CCCCC1)c1cc(N2C(=O)CCC2=O)ccc1Cl,"inconclusive: 6.51 µM [activator, partial curve, poor fit]",–
O=C(CNC(=O)c1ccco1)N/N=C/c1ccccc1[N+](=O)[O-],–,inactive: -11.1%
CCOC(=O)c1c(C)[nH]c(C(=O)OCC(=O)Nc2cccnc2Cl)c1C,"inconclusive: 29.1 µM [inhibitor, single point]",–
O=C(Nc1nncs1)c1ccc2c(c1)OCO2,"inconclusive: 29.1 µM [activator, single point]",–
O=C(N[C@@H](Cc1c[nH]c2ccccc12)C(=O)NC1CC1)c1ccccc1Cl,"inconclusive: 16.4 µM [activator, partial curve]",–
Cc1nn(Cc2ccc(Cl)c(Cl)c2)c(C)c1NC(=O)c1cc(-c2ccc3c(c2)OCO3)on1,"inconclusive: 20.6 µM [inhibitor, single point]",–
O=C(Nc1ccc(C(=O)N2CCCC(CO)C2)cc1)c1ccc(Br)o1 (stereo unspecified),"inconclusive: 29.1 µM [activator, partial curve, poor fit]",–
Cc1ccc(OCC(=O)N/N=C/c2cccn2C)cc1C,–,inactive: 3.77%
Cc1nnc(NC(=O)c2ccc(Br)cc2)s1,"inconclusive: 10.3 µM [activator, partial curve]",–
COc1ccc(N(C(=O)Cn2nnc(-c3ccc(F)cc3)n2)C(C)C(=O)NC2CCCC2)cc1 (stereo unspecified),"inconclusive: 18.3 µM [inhibitor, partial curve]",–
Cc1cc(C)n(-c2ccn(Cc3ccc(Cl)cc3Cl)c(=O)n2)n1,"inconclusive: 29.1 µM [inhibitor, single point]",–
CCOC(=O)c1sc2nccc(N(C)C)c2c1N=CNOCc1ccccc1,"inconclusive: 29.1 µM [inhibitor, single point]",–
Cc1ccc(C)c(-n2nnnc2SCC(=O)Nc2cccc(-c3nnc4n3CCCCC4)c2)c1,"inconclusive: 12.6 µM [inhibitor, partial curve, poor fit]",–
O=C(CCN1C(=O)/C(=C/c2cccs2)SC1=S)NNC(=O)c1cccc(O)c1,"inconclusive: 20.6 µM [inhibitor, partial curve]",–
CCc1nnc(NC(=O)c2oc3ccccc3c2COC(C)C)s1,–,inactive: -20%
CC(C)CC(C(=O)NC(C)(C)C)N(Cc1ccccc1Cl)C(=O)c1snc(C(N)=O)c1N (stereo unspecified),"inconclusive: 22.4 µM [inhibitor, single point]",–
COc1ccc(Cn2c(-c3ccc(OC)cc3)nc3ccccc32)cc1,"inconclusive: 23.1 µM [inhibitor, partial curve, poor fit]",–
COCCn1c(SCC(=O)Nc2cc(C)cc(C)c2)nc2ccccc2c1=O,"inconclusive: 20 µM [inhibitor, single point]",–
CCOC(=O)C(=CN=C(N)Nc1nc2ccccc2o1)C(=O)OCC,"inconclusive: 29.1 µM [activator, single point]",–
O=C(COC(=O)c1ccccc1C(=O)N1CCN(c2ccc(F)cc2)CC1)NCc1ccccc1,"inconclusive: 23.1 µM [inhibitor, partial curve]",–
COc1ccccc1N1CCN(S(=O)(=O)c2cccs2)CC1,"inconclusive: 32.6 µM [activator, partial curve, poor fit]",–

# Part of the list above in order of formula weight, rising.
Compound,Potency,"activity change, negative = inhibition"
COc1ccccc1N1CCN(S(=O)(=O)c2cccs2)CC1,"inconclusive: 32.6 µM [activator, partial curve, poor fit]",–
COc1ccc(Cn2c(-c3ccc(OC)cc3)nc3ccccc32)cc1,"inconclusive: 23.1 µM [inhibitor, partial curve, poor fit]",–
O=C(NCC1COc2ccccc2O1)C1CCN(S(=O)(=O)c2ccc(Cl)cc2)CC1 (stereo unspecified),"inconclusive: 29.1 µM [inhibitor, single point]",–

# (further entries)

Compound,Potency,"activity change, negative = inhibition"
CNC(=O)NC(=O)COC(=O)CCCSc1nc2ccccc2s1,–,inactive: 12.4%
CC1CCc2c(sc3nc(SCC(=O)NCc4ccco4)nc(N)c23)C1 (stereo unspecified),–,inactive: -6.44%
O=C(N/N=C/c1cccn1-c1ccc(O)cc1)c1cccc2ccccc12,"inconclusive: 23.1 µM [activator, partial curve, poor fit]",–
Cc1ccc(-n2c(SCC(=O)N3Cc4ccccc4CC3C(=O)O)nnc2-c2cccnc2)c(C)c1 (stereo unspecified),"inconclusive: 18.4 µM [activator, partial curve, poor fit]",–
CCOC(=O)c1cc(-c2ccco2)nc2c1c(C)nn2-c1ccccc1,"inconclusive: 29.1 µM [activator, single point]",–
CC1CCCCN1C(=O)COC(=O)CNC(=O)c1ccc(Cl)cc1Cl (stereo unspecified),–,inactive: 18%
O=C(CNC(=O)c1cccs1)N/N=C/c1ccc(Cl)cc1,"inconclusive: 18.3 µM [activator, partial curve, poor fit]",–
COc1ccc(-n2nc3c(=O)[nH][nH]c3cc2=O)cc1,"inconclusive: 0.164 µM [activator, single point]",–
Cc1ccc(N2CC(C(=O)OCC(=O)c3c(N)n(CC(C)C)c(=O)n(C)c3=O)CC2=O)cc1 (stereo unspecified),"inconclusive: 3.26 µM [inhibitor, partial curve, poor fit]",–
Cc1sc2ncnc(N3CCN(C(=O)c4ccco4)CC3)c2c1C,active: 11.6 µM,–
c1ccc(OCc2nnc(-c3ccccc3)o2)cc1,"inconclusive: 20.6 µM [activator, partial curve]",–
CON/C=N/C(=S)Nc1ncc(C(F)(F)F)cc1Cl,–,inactive: 6.03%
CC(=O)c1ccc(NC(=O)[C@@H]2CCCN2C2=NS(=O)(=O)c3ccccc32)cc1,"inconclusive: 18.3 µM [activator, partial curve, poor fit]",–
CNC(=O)CSc1nnc(-c2ccco2)n1-c1ccccc1OC,"inconclusive: 18.4 µM [activator, single point]",–
O=C(O)CC1=C(Nc2ccccc2)C(=O)N(c2ccccc2)C1c1ccc(F)cc1 (stereo unspecified),"inconclusive: 14.6 µM [activator, partial curve]",–
COc1ccc2oc(=O)c(-c3cn4ccc(C)cc4n3)cc2c1,"inconclusive: 8.2 µM [activator, partial curve]",–
COc1ccc(C2C(C(C)=O)=C(O)C(=O)N2c2ccc(C)cc2)cc1 (stereo unspecified),"inconclusive: 32.6 µM [inhibitor, partial curve, poor fit]",–
C=CCS/C(=N\n1cnc2ccccc2c1=O)N1CCCCC1,"inconclusive: 7.31 µM [activator, partial curve]",–
N#CC(C#N)=NNc1ccc(S(=O)(=O)N2CCCCC2)cc1,"inconclusive: 14.6 µM [inhibitor, partial curve]",–
COc1cccc(-c2sc3ccc(OC)cc3c2-c2ccc(OCCN3CCCCC3)cc2)c1,"inconclusive: 23.1 µM [inhibitor, partial curve]",–
Cc1cccc(NC(=O)CSc2nc3ccccc3c(=O)n2CC2CCCO2)c1 (stereo unspecified),–,inactive: 0%
O=C(c1cc(N2C(=O)C3C4CCC(C4)C3C2=O)ccc1Cl)N1CCN(c2ccccc2)CC1 (stereo unspecified),"inconclusive: 23.1 µM [inhibitor, partial curve, poor fit]",–

Compound,Potency,"activity change, negative = inhibition"
O=C(COc1ccccc1[N+](=O)[O-])Nc1ccc(Br)cc1,"inconclusive: 20.6 µM [activator, partial curve]",–
COc1ccc(/C=N/NC(=O)c2cccnc2)cc1CN1CCCc2ccccc21,–,inactive: 6.09%
O=C(Nc1cccnc1)c1ccc(COCC(F)(F)F)cc1,"inconclusive: 20.6 µM [activator, partial curve]",–
Cc1nnc(SC(=O)N2c3ccccc3Sc3ccccc32)s1,"inconclusive: 18.4 µM [inhibitor, single point]",–
O=C(NN=C1CCCCCC1)c1ccncc1,–,inactive: 2.21%
CCCn1c(=O)[nH]c(=O)c2c1nc(-c1ccc(OC(F)F)c(OC)c1)n2CCOC,"inconclusive: 20.6 µM [inhibitor, single point]",–
C/C(=N\Nc1nncc2ccccc12)c1ccc(C(C)(C)C)cc1,"inconclusive: 23.1 µM [activator, partial curve]",–
O=C(Nc1cccnc1)c1cc(-c2ccc(Cl)cc2Cl)on1,"inconclusive: 2.59 µM [activator, full curve]",–
CC(C)(C)OC(=O)N1CCC[C@H]1c1nnc(SCc2ccccc2Cl)o1,–,inactive: 10.9%
COc1cccc(C(=O)NC2CC(C)(C)Cc3c2cnn3-c2cccc(F)c2)c1OC (stereo unspecified),"inconclusive: 10.3 µM [inhibitor, partial curve, poor fit]",–
COC(=O)c1c(NC(=O)c2cccc(S(=O)(=O)N3CCN(C)CC3)c2)sc(C)c1C,"inconclusive: 4.11 µM [inhibitor, partial curve]",–
CCCCSc1ncc(C(=O)OCC)c(N)n1,"inconclusive: 3.66 µM [activator, full curve]",–
O=C(Nc1ccc(Oc2cccc3ccccc23)cc1)c1ccco1,–,inactive: -7.17%
CC(C)(O)C#Cc1ccc(CN2CCN(CCc3ccccc3)C(CCO)C2)s1 (stereo unspecified),"inconclusive: 2.91 µM [inhibitor, partial curve, poor fit]",–
Cc1cc(SCC#N)n2nc(C)c(-c3ccccc3)c2n1,active: 23.1 µM,–
COc1ccc(OC)c(C2=Nn3c(nnc3-c3cccc(OC(C)C)c3)SC2)c1,"inconclusive: 18.4 µM [inhibitor, partial curve, poor fit]",–
CCn1cc(Br)c(C(=O)NC(=S)Nc2ccc(C(=O)OC)cc2)n1,–,inactive: 16.1%
CC1CCc2nc(NC(=O)C3COc4ccccc4O3)sc2C1 (stereo unspecified),"inconclusive: 0.291 µM [activator, partial curve]",–
CC(CNC(=O)CN(C)CC(=O)Nc1ccccc1Br)c1ccccc1 (stereo unspecified),–,inactive: -9.08%
O=C(Cc1csc(N2CCOCC2)n1)N/N=C/c1ccc(O)c(O)c1O,active: 13 µM,–
COc1ccc(Nc2cc(C)nc(N)n2)cc1,"inconclusive: 18.3 µM [activator, single point]",–
COc1ccc(CCn2ccc(O)c(Cc3c(F)cccc3Cl)c2=O)cc1OC,"inconclusive: 29.1 µM [inhibitor, single point]",–
